At least one structure is not confirmed: it was looked up by name or label, or the drawing left a doubt.
Target: T1, Nurr1 (Homo sapiens, UniProt P43354)
T1 construct: effector plasmid containing the Nurr1 gene; expressed in transfected cells; host or cells: SK-N-BE(2)C human neuroblastoma cells, transient transfection
Test: Primary screening: Nurr1 effector with 2.6-TH promoter firefly luciferase reporter, transient transfection in SK-N-BE(2)C cells
Type: cell-based
Settings: incubation for eighteen hours
Experimental: FIG. 5A is a chart showing preliminary screening data with a small chemical library. Transiently expressed Nurr1 activity in SK-N-BE(2)C cells was measured by luciferase activity with 2.6-TH promoter after incubation with each compound for eighteen hours. […] Each column has eight different chemical compounds. FIG. 5B is a chart showing further preliminary screening data with a small chemical library. Transiently expressed Nurr1 activity in SK-N-BE(2)C cells was measured by luciferase activity with 2.6-TH promoter after incubation with each compound for eighteen hours. […] Each column has eight different chemical compounds.
Transiently expressed Nurr1 activity in SK-N-BE(2)C cells was measured by luciferase activity after incubation of each compound with the pcDNA-Nurr1 construct for eighteen hours.
A cell-based system exploiting Nurr1's activation of TH was created in order to develop an assay for identification of Nurr1-activating compounds. […] In addition, a transient transfection was selected, rather than using stable cell-line transfection, to favor the maximum responsiveness of compounds to the reporter gene in order to detect low-affinity hit chemicals in the first screening. […]

Chains of the proteins cited; added tags and fusions are not shown.
UniProt P43354, whole entry: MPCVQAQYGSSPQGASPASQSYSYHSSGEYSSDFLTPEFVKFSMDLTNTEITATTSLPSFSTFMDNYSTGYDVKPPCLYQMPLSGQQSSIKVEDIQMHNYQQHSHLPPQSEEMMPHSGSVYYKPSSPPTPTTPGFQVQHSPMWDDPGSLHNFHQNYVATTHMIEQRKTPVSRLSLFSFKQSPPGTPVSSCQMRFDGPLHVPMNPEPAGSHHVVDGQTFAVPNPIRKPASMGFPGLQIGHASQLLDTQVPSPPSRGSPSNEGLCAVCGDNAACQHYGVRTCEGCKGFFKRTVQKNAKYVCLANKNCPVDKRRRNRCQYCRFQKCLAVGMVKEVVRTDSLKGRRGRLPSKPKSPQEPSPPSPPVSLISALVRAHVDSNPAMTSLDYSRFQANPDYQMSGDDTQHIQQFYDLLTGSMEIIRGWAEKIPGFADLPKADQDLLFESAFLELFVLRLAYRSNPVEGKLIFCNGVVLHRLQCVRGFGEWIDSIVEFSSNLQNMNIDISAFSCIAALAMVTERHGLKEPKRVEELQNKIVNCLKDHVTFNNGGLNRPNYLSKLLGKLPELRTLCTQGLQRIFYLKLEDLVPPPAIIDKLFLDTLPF

Compound: C=C[C@@]1(C)CC(=O)[C@]2(O)[C@@]3(C)[C@@H](O)CCC(C)(C)[C@@H]3[C@H](O)[C@H](OC(C)=O)[C@@]2(C)O1 [forskolin]
- Luciferase activity compared to control with DMSO, preliminary screening: apparent increase in luciferase activity
